Results are given in words; binding and its absence hold for the method and conditions named. Binding seen in cells or lysates may run through a third protein. Binding calls can cover weak binding; strength is not graded here.
Molecular target: mutant ataxin-7 with 72 glutamines (ATXN7-72Q) (human) (UniProt O15265)
Assay: proximity ligation; HeLa cells overexpressing ATXN7-72Q alone or with HA-SUMO2; mouse monoclonal anti-1C1 (ATXN7) and rabbit polyclonal anti-SUMO2/3; detects proteins closer than 40 nm; controls with one of the two antibodies gave no signal

Protein sequences, listed by entry. Tags and fused reporters are not part of them. Lines headed by an entry give the natural chain unless they say otherwise; changes in a name come on top.
UniProt O15265: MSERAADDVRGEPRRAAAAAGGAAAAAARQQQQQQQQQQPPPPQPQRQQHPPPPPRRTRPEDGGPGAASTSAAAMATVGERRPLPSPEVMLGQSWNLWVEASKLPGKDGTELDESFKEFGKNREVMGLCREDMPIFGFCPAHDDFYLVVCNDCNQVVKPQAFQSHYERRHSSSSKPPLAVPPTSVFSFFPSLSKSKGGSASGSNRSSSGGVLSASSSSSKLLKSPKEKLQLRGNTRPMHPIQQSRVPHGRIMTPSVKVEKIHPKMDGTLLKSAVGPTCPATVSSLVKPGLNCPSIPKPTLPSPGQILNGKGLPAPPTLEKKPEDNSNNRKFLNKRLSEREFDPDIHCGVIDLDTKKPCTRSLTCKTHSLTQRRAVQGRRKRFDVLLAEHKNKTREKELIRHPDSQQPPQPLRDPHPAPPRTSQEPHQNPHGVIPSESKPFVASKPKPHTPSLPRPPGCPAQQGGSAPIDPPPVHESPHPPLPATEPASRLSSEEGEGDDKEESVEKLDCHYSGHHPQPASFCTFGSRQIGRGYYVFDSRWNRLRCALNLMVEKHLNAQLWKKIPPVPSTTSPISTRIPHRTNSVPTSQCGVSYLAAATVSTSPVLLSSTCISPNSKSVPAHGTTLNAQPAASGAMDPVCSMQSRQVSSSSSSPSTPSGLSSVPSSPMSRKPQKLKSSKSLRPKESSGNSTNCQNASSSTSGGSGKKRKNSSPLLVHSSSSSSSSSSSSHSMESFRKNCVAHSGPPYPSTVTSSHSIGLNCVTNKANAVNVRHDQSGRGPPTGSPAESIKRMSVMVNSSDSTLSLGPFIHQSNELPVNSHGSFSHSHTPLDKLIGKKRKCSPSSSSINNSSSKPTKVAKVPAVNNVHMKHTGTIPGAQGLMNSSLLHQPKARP
UniProt P61956: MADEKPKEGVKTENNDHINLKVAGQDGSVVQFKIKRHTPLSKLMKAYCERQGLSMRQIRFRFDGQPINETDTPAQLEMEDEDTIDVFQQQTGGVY

HA-SUMO2 (from UniProt P61956 1-95)
binding: binds

— publication PMC6361149
